From paper doi:10.1101/679977v1 (bioRxiv, 2019) come the findings set out here.

Molecules are shown by their SMILES. Square brackets hold non-standard residues; d marks the D form. Peptide text beside a SMILES is read from it.

The data set in a line: CD spectroscopy. The class given is physicochemical. The following applies: 30 mM SDS, 150 μM peptide, 25°C, average of three scans.
Regarding `CC[C@H](C)[C@H](NC(=O)CNC(=O)[C@H]1CCCN1C(=O)[C@H](CCCCN)NC(=O)[C@H](Cc1c[nH]c2ccccc12)NC(=O)[C@@H](NC(=O)[C@@H](N)CCCCN)[C@@H](C)CC)C(=O)N[C@@H](CCCCN)C(=O)N[C@@H](CCCCN)C(=O)N[C@@H](Cc1c[nH]c2ccccc12)C(=O)O` [Peptide 1] (H-KIWK[dP]GIKKW-OH; N-terminus and C-terminus assumed), the “[θ]220 (mean residue ellipticity)” value is −728 deg×cm^2×dmol^-1.
The same measure for `CC[C@H](C)[C@H](NC(=O)CNC(=O)[C@H]1CCCN1C(=O)[C@H](CCCCN)NC(=O)[C@H](Cc1c[nH]c2ccccc12)NC(=O)[C@@H](NC(=O)[C@H](CCCCN)NC(=O)[C@H](CCCCN)NC(=O)[C@@H](N)Cc1c[nH]c2ccccc12)[C@@H](C)CC)C(=O)N[C@@H](CCCCN)C(=O)N[C@@H](CCCCN)C(=O)N[C@@H](Cc1c[nH]c2ccccc12)C(=O)N[C@H](C(=O)N[C@@H](CCCCN)C(=O)O)[C@@H](C)CC` [Peptide 2] (H-WKKIWK[dP]GIKKWIK-OH; N-terminus and C-terminus assumed): −839 deg×cm^2×dmol^-1.
With `CC[C@H](C)[C@H](NC(=O)CNC(=O)[C@H]1CCCN1C(=O)[C@H](CCCCN)NC(=O)[C@H](Cc1c[nH]c2ccccc12)NC(=O)[C@@H](NC(=O)[C@H](CCCCN)NC(=O)[C@H](CCCCN)NC(=O)[C@H](Cc1c[nH]c2ccccc12)NC(=O)[C@@H](NC(=O)[C@@H](N)CCCCN)[C@@H](C)CC)[C@@H](C)CC)C(=O)N[C@@H](CCCCN)C(=O)N[C@@H](CCCCN)C(=O)N[C@@H](Cc1c[nH]c2ccccc12)C(=O)N[C@H](C(=O)N[C@@H](CCCCN)C(=O)N[C@@H](CCCCN)C(=O)N[C@@H](Cc1c[nH]c2ccccc12)C(=O)O)[C@@H](C)CC` [Peptide 3] (H-KIWKKIWK[dP]GIKKWIKKW-OH; N-terminus and C-terminus assumed) the figure was −1668 deg×cm^2×dmol^-1.
With `CC[C@H](C)[C@H](NC(=O)CNC(=O)[C@H]1CCCN1C(=O)[C@H](CCCCN)NC(=O)[C@H](Cc1c[nH]c2ccccc12)NC(=O)[C@@H](NC(=O)[C@H](CCCCN)NC(=O)[C@H](CCCCN)NC(=O)[C@H](Cc1c[nH]c2ccccc12)NC(=O)[C@@H](NC(=O)[C@H](CCCCN)NC(=O)[C@H](CCCCN)NC(=O)[C@@H](N)Cc1c[nH]c2ccccc12)[C@@H](C)CC)[C@@H](C)CC)C(=O)N[C@@H](CCCCN)C(=O)N[C@@H](CCCCN)C(=O)N[C@@H](Cc1c[nH]c2ccccc12)C(=O)N[C@H](C(=O)N[C@@H](CCCCN)C(=O)N[C@@H](CCCCN)C(=O)N[C@@H](Cc1c[nH]c2ccccc12)C(=O)N[C@H](C(=O)N[C@@H](CCCCN)C(=O)O)[C@@H](C)CC)[C@@H](C)CC` [Peptide 4] (H-WKKIWKKIWK[dP]GIKKWIKKWIK-OH; N-terminus and C-terminus assumed) the figure was −6924 deg×cm^2×dmol^-1.
